The list shows a part of the results.

Sequences of proteins named here, by UniProt entry; tags and fusion partners are left off. A change or cut given only in a name is not applied to a line headed by its entry.
UniProt P42224: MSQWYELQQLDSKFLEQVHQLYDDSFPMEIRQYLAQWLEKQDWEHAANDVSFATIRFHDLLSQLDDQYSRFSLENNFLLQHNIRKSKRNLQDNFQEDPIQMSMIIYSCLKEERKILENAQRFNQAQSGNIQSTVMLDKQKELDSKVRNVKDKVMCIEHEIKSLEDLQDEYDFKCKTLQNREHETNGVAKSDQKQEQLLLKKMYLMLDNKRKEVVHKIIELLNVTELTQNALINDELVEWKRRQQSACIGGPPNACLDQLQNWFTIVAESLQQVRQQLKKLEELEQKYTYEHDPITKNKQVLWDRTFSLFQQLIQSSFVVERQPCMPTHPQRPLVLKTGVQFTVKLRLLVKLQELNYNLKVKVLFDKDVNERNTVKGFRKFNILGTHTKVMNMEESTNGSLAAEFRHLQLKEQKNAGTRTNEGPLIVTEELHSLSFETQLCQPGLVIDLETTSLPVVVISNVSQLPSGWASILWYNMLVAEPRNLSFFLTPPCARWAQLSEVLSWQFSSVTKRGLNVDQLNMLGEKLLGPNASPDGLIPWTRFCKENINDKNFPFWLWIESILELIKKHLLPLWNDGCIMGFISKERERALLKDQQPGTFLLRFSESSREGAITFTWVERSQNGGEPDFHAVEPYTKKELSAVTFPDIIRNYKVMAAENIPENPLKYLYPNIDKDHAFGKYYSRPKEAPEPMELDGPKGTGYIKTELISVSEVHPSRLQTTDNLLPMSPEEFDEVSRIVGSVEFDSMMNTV
UniProt Q04837: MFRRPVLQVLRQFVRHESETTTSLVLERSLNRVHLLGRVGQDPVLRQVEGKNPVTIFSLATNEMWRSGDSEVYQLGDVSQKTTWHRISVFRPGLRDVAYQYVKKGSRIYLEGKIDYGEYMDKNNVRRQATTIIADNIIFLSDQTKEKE
UniProt P61011: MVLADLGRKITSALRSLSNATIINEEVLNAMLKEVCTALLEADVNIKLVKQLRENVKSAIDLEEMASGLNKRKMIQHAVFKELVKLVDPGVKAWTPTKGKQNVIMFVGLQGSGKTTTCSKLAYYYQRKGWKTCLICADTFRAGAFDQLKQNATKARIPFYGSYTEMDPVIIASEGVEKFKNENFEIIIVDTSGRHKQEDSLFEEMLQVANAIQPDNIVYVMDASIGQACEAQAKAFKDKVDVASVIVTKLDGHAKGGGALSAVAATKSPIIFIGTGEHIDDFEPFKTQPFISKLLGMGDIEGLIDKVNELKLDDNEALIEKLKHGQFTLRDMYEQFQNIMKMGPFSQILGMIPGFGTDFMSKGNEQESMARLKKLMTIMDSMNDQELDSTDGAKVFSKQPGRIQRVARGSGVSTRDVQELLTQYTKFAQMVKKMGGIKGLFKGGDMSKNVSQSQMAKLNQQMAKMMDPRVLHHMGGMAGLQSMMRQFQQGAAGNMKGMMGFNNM
UniProt Q9BVQ7: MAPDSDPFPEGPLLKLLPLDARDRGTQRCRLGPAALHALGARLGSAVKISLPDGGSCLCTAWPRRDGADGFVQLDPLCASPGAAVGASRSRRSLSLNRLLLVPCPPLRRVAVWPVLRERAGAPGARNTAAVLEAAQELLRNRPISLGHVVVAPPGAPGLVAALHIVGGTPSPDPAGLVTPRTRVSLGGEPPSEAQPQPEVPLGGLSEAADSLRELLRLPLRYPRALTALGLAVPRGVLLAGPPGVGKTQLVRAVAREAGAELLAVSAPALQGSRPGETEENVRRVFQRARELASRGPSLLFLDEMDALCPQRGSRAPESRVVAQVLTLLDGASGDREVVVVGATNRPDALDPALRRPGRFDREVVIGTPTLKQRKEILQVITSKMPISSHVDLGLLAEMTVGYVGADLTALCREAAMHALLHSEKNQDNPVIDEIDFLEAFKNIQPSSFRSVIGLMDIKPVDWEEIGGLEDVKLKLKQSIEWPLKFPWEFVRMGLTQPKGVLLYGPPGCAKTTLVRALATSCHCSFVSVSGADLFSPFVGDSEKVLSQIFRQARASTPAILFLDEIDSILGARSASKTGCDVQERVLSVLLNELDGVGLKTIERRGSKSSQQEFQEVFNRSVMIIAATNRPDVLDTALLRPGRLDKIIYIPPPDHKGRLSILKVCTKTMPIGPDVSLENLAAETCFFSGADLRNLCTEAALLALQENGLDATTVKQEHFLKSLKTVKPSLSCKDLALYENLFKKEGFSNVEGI
UniProt Q8WVM7: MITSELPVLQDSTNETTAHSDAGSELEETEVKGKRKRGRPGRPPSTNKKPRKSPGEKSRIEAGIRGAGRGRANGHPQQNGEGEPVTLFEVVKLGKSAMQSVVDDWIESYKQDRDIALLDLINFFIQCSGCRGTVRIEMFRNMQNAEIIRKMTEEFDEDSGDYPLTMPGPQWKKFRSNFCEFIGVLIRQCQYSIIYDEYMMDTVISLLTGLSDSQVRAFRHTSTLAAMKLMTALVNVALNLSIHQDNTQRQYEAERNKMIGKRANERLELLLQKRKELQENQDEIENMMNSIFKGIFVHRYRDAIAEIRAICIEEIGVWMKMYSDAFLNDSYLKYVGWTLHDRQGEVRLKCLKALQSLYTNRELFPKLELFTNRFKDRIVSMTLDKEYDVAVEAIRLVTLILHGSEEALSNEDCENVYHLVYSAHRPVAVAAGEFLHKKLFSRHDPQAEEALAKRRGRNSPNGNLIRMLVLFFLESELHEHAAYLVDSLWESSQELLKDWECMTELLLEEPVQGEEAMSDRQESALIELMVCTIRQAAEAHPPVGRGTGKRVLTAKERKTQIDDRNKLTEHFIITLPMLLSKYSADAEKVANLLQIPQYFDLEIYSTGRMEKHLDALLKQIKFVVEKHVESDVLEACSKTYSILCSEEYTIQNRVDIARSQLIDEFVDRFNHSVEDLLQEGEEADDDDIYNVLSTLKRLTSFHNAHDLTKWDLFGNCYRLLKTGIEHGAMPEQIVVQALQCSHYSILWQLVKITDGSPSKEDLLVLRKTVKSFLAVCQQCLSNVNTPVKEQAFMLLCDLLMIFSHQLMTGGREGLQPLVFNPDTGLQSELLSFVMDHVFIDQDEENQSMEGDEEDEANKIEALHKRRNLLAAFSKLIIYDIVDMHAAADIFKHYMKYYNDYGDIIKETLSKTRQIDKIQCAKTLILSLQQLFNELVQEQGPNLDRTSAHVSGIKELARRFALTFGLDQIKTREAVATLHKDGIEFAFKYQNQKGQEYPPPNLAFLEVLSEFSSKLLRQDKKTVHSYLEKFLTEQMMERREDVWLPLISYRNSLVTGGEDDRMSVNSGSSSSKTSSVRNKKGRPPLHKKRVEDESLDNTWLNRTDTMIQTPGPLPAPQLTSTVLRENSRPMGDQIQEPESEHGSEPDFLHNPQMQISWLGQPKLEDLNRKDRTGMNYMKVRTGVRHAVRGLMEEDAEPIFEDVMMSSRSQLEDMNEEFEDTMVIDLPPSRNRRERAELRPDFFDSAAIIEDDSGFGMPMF
UniProt Q13242, whole entry, looked up: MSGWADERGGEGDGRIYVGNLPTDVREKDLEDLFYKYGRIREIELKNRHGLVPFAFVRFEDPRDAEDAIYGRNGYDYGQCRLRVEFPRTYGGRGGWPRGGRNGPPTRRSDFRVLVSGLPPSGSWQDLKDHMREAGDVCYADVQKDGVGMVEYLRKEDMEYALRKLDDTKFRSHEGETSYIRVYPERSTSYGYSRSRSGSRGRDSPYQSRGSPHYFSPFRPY
UniProt Q9C004: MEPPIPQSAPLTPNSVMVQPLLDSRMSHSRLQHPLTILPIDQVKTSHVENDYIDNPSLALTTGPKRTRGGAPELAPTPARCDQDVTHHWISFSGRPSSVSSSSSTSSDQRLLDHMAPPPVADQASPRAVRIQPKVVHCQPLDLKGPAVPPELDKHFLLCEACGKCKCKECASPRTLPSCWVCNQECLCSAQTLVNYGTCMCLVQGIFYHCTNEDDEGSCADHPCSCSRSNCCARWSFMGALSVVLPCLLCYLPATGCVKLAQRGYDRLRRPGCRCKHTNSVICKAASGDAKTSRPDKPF
UniProt P43307: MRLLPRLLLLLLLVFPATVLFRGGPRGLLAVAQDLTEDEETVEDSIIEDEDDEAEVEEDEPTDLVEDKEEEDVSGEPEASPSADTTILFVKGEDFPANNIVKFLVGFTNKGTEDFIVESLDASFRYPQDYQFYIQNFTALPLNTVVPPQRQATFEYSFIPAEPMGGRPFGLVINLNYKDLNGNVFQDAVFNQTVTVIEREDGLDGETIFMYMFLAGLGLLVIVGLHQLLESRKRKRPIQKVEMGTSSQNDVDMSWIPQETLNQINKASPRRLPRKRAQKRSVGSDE
UniProt Q14534: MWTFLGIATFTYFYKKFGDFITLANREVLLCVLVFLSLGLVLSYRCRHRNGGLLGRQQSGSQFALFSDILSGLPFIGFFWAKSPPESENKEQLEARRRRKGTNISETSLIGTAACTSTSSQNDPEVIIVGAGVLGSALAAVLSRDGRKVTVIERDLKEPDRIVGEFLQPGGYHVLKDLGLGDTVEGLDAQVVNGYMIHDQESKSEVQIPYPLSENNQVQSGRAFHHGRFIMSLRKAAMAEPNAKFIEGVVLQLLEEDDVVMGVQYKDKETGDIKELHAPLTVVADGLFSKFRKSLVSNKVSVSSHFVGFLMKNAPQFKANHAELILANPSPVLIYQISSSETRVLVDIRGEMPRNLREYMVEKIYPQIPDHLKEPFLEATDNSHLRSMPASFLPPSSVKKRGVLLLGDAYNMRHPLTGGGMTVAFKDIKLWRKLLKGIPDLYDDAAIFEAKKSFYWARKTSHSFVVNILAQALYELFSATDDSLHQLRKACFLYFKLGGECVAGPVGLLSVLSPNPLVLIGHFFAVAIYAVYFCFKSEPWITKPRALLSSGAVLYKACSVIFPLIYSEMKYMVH
UniProt Q15831: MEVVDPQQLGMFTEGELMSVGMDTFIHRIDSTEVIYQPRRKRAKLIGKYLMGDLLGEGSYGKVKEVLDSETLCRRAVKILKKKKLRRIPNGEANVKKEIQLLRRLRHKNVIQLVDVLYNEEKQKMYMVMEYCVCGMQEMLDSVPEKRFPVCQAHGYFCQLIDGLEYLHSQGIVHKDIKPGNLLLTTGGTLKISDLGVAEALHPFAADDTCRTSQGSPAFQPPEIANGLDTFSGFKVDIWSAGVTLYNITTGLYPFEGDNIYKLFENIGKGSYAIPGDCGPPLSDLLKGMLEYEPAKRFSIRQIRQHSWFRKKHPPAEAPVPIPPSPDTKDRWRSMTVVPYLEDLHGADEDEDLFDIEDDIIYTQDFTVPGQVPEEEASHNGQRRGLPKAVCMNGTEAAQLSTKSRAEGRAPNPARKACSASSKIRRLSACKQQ
UniProt Q9HD15: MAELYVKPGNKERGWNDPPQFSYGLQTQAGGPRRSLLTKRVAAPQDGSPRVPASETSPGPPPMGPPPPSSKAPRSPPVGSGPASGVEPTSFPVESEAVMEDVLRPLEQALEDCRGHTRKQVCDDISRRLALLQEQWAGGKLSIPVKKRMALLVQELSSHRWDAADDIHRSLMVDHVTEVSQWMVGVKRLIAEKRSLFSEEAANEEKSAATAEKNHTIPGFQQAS
UniProt Q92783: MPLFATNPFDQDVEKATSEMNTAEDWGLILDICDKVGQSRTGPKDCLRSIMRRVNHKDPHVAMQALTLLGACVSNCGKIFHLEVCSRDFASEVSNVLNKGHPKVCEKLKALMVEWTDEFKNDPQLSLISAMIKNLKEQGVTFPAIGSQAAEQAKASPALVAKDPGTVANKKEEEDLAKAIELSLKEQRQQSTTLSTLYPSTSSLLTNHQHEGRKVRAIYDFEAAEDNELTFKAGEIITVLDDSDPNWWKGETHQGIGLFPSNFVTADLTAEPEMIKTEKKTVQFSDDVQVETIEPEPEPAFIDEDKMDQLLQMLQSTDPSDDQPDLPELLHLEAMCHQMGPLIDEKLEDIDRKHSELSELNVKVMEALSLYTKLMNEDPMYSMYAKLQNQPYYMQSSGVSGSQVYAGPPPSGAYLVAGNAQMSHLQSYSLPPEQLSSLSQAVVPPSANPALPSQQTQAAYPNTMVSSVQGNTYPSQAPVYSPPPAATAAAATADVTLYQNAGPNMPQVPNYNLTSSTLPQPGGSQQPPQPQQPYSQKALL
UniProt P31948, whole entry, looked up: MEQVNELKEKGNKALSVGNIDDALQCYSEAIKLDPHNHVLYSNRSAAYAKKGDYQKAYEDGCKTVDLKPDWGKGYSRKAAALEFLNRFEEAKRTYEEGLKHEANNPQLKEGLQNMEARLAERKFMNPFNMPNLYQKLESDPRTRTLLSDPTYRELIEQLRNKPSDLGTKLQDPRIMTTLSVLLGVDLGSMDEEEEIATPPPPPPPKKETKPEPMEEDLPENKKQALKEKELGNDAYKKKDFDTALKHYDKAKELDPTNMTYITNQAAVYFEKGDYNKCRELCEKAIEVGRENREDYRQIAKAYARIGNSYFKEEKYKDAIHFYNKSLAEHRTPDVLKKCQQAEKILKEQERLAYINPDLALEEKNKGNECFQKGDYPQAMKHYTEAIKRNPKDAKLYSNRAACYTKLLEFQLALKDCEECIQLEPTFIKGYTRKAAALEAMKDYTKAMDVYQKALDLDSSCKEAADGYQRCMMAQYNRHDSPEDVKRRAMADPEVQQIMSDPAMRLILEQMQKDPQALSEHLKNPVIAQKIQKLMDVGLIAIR

Compound in the first assay: C=CC(=O)N1CCC[C@@H](n2nc(-c3ccc(Oc4ccccc4)cc3)c3c(N)ncnc32)C1 [ibrutinib]
The experiment in a line: log2 fold change, soluble protein after heating vs DMSO (PISA); higher = thermal stabilisation; K562 cells, 10 uM, 30 min; active = over 0.2 and 3.5 SD of the protein, either way, in both replicates (recomputed). In short, it runs like this: (§1)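 K562 cells (2×10^6 cells/mL) were treated with 10 μM compound for 30 min, and aliquots were heated for 3 min over 48°C-58°C. Pooled aliquots were extracted in PBS with 0.5% NP-40 at 4°C, and the supernatant after 21,000xg for 90 min was measured by TMTpro 16plex LC-MS/MS with channel sums equalised. Reported thermal stability, relative to control samples and from duplicates, is a log2 fold change.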
As for STAT1 (UniProt P42224), the log2 fold change is inactive: -0.01.
Turning to SPARC (UniProt P09486), the log2 fold change was inactive: 0.116.
Still for that read-out and setting: then SRPK1 (UniProt Q96SB4), with inactive: -0.005.
On the same count and under the same terms, then SSBP1 (UniProt Q04837), with inactive: -0.011; and SRP14 (UniProt P37108), with inactive: 0.048; and ST7 (UniProt Q9NRC1), with inactive: -0.036.
Same read-out and setting: as for STAMBP (UniProt O95630), the figure is inactive: -0.027; as for SPECC1L (UniProt Q69YQ0), inactive: 0.035; as for SPTB isoform 2 (UniProt P11277), inactive: -0.047.
With SPTBN2 (UniProt O15020), the log2 fold change was inactive: 0.
Still for that read-out and setting: as for SRP54 (UniProt P61011), the figure is inactive: -0.003; as for SPC25 (UniProt Q9HBM1), inactive: -0.036.
In the case of SPATA5L1 (UniProt Q9BVQ7), the log2 fold change was inactive: 0.04.
For the target STAG1 (UniProt Q8WVM7), the log2 fold change is inactive: -0.06.
Still for that read-out and setting: as for SRSF9 (UniProt Q13242), the figure is inactive: 0.106.

Compound in another assay: CC(=O)c1cnc2ccc(-c3cc(Cl)c(O)c(Cl)c3)nc2c1N[C@H]1CC[C@H](CN(C)C)CC1
Described as above. In short, it runs like this:
as §1
As for SRSF5 (UniProt Q13243), the log2 fold change is inactive: -0.013.
Same read-out and setting: then SPRY4 (UniProt Q9C004), with inactive: -0.007; and SRRT (UniProt Q9BXP5), with inactive: -0.195; and SPCS3 (UniProt P61009), with inactive: -0.008.
On the same count and under the same terms, as for SPHK1 isoform 2 (UniProt Q9NYA1), the figure is inactive: -0.204.
The same measure, in the same setting: as for SPRYD4 (UniProt Q8WW59), the figure is inactive: 0.014; as for ST6GALNAC1 (UniProt Q9NSC7), inactive: 0.039.
With SRR (UniProt Q9GZT4), the log2 fold change is inactive: -0.04.
In the case of SPTAN1 isoform 2 (UniProt Q13813), the log2 fold change is inactive: -0.058.
On the same count and under the same terms, then SSR1 (UniProt P43307), with inactive: 0.006; and SPRYD7 (UniProt Q5W111), with inactive: 0.014; and SPCS1, A0A5F9YFS9, with inactive: -0.016.
Same read-out and setting: as for STAU1 (UniProt O95793), the figure is inactive: 0.129.
Regarding SPN (UniProt P16150), the log2 fold change is inactive: 0.027.
Still for that read-out and setting: as for SPIN1 (UniProt Q9Y657), the figure is inactive: -0.066; as for SRM (UniProt P19623), inactive: -0.005.
Same read-out and setting: then SQLE (UniProt Q14534), with inactive: -0.076; and STK11 (UniProt Q15831), with inactive: -0.104.
In the case of SPTA1 (UniProt P02549), the log2 fold change is inactive: 0.051.
On the same count and under the same terms, as for SRA1 (UniProt Q9HD15), the figure is inactive: -0.067; as for STAM (UniProt Q92783), inactive: 0.064; as for STAG2 (UniProt Q8N3U4), inactive: -0.156.
On the same count and under the same terms, then STIP1 isoform 2 (UniProt P31948), with inactive: -0.017; and STAT1 (UniProt P42224), with inactive: 0.101.
Same read-out and setting: then SPARC (UniProt P09486), with inactive: 0.059; and SRPK1 (UniProt Q96SB4), with inactive: 0.387.
With SSBP1 (UniProt Q04837), the log2 fold change is inactive: -0.011.
With SRP14 (UniProt P37108), the log2 fold change was inactive: 0.039.
On the same count and under the same terms, then ST7 (UniProt Q9NRC1), with inactive: -0.018.
Same read-out and setting: then STAMBP (UniProt O95630), with inactive: 0.005; and SPECC1L (UniProt Q69YQ0), with inactive: -0.032; and SPTB isoform 2 (UniProt P11277), with inactive: -0.005.
SPTBN2 (UniProt O15020): the log2 fold change is inactive: -0.032.
The same measure, in the same setting: then SRP54 (UniProt P61011), with inactive: -0.035; and SPC25 (UniProt Q9HBM1), with inactive: 0.055; and SPATA5L1 (UniProt Q9BVQ7), with inactive: -0.012.
The same measure, in the same setting: as for STAG1 (UniProt Q8WVM7), the figure is inactive: -0.161; as for SRSF9 (UniProt Q13242), inactive: -0.13.

These data come from the supplement of paper PMC10849652.
